Data as given in PubChem BioAssay AID743454 (Peter MacCallum Cancer Centre, 2014).

Aim: 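Knock-downs lowering viability or raising caspase 3/7 activity in vorinostat-treated resistant cells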 (primary screen)
Cells: human HCT116-VR colon cancer cells, selected for vorinostat resistance
Reagents: siRNA pool against human genes, 40 nM siRNA pool
Time to read-out: vorinostat for 24 h, read-out about 72 h after transfection
Conditions: vorinostat at 2.5 µM final
Measurement: 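Two measures, CellTiter-Fluor viability and luminescent caspase 3/7 activity, each as fold change against same-plate mock wells, mean of duplicates, then screen-wide robust z-score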
Reading the numbers: viability robust z-score: higher = more viable cells than screen typical; caspase robust z-score: higher = more caspase 3/7 activity than screen typical
Rule for the call: 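a knock-down is a hit when classed RV1 or RV2 for lowered viability, or CA1 or CA2 for caspase activation; those lethal without drug were dropped; hits were retested singly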
Shown is one part, drawn at random, of about 18,000 deposited reagents. In the full data, 450 (2.5%) were called active. 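Single biological run; no consistent viability z cut-off exists, so the class columns, not z-scores, define the calls.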

{"gene symbol":"SCARB2 (GeneID 950)","viability hit class":"no change","caspase hit class":"no change","viability robust z-score":1.36,"caspase robust z-score":-0.44,"call":"inactive"}
{"gene symbol":"ALS2CL (GeneID 259173)","viability hit class":"no change","caspase hit class":"no change","viability robust z-score":-0.27,"caspase robust z-score":1.68,"call":"inactive"}
{"gene symbol":"PRSS48 (GeneID 345062)","viability hit class":"no change","caspase hit class":"no change","viability robust z-score":0.95,"caspase robust z-score":1.46,"call":"inactive"}
{"gene symbol":"DTYMK (GeneID 1841)","viability hit class":"no change","caspase hit class":"no change","viability robust z-score":0.86,"caspase robust z-score":0.75,"call":"inactive"}
{"gene symbol":"WDR25 (GeneID 79446)","viability hit class":"no change","caspase hit class":"no change","viability robust z-score":-1.21,"caspase robust z-score":1.73,"call":"inactive"}
{"gene symbol":"DPF1 (GeneID 8193)","viability hit class":"no change","caspase hit class":"no change","viability robust z-score":-1.79,"caspase robust z-score":0.94,"call":"inactive"}
{"gene symbol":"GIMAP7 (GeneID 168537)","viability hit class":"no change","caspase hit class":"no change","viability robust z-score":-1.7,"caspase robust z-score":0.4,"call":"inactive"}
{"gene symbol":"DPAGT1 (GeneID 1798)","viability hit class":"no change","caspase hit class":"no change","viability robust z-score":0.4,"caspase robust z-score":1.39,"call":"inactive"}
{"gene symbol":"EDN1 (GeneID 1906)","viability hit class":"no change","caspase hit class":"no change","viability robust z-score":-0.18,"caspase robust z-score":-0.57,"call":"inactive"}
{"gene symbol":"LYZ (GeneID 4069)","viability hit class":"no change","caspase hit class":"no change","viability robust z-score":0.01,"caspase robust z-score":-0.62,"call":"inactive"}
{"gene symbol":"UBE4B (GeneID 10277)","viability hit class":"no change","caspase hit class":"no change","viability robust z-score":-0.24,"caspase robust z-score":0.06,"call":"inactive"}
{"gene symbol":"WIF1 (GeneID 11197)","viability hit class":"no change","caspase hit class":"no change","viability robust z-score":0.28,"caspase robust z-score":1.98,"call":"inactive"}
{"gene symbol":"ESD (GeneID 2098)","viability hit class":"no change","caspase hit class":"no change","viability robust z-score":2.91,"caspase robust z-score":0.59,"call":"inactive"}
{"gene symbol":"OR7G2 (GeneID 390882)","viability hit class":"no change","caspase hit class":"no change","viability robust z-score":-0.32,"caspase robust z-score":-0.02,"call":"inactive"}

2 entries already listed, sorted by “caspase robust z-score”, descending:
{"gene symbol":"WIF1 (GeneID 11197)","viability hit class":"no change","caspase hit class":"no change","viability robust z-score":0.28,"caspase robust z-score":1.98,"call":"inactive"}
{"gene symbol":"ESD (GeneID 2098)","viability hit class":"no change","caspase hit class":"no change","viability robust z-score":2.91,"caspase robust z-score":0.59,"call":"inactive"}
